{"source": "patent US20120142005A1", "about": "“METHOD FOR SCREENING OF REGENERATIVE MEDICINE” (TAKEDA PHARMACEUTICAL COMPANY LIMITED, priority 2009, published 2012)", "key": {"ES cells (cell line D3)": {"tested_on": "ES cells (cell line D3)", "test": "Compound evaluation system: embryoid body from ES cells dispersed to single cells, adhesion culturing 4 days with compound, expression of differentiation markers by (Multiplex) RT-PCR", "assay_type": "cell-based, mouse", "settings": "8 types of genes; for level of expression of at least one type of gene, increase compared to addition of DMSO: adhesion culturing 4 days"}, "[1]": {"tested_on": "human mesenchymal stem cells", "test": "Bone differentiation of human mesenchymal stem cells: expression of Alp1, Runx2, Col1a1 and PTHR by quantitative RT-PCR", "assay_type": "cell-based", "settings": "compound added upon induction of bone differentiation, 8 days (FIG. 4)", "experimental": "Then, the influence of the selected compounds was examined on bone differentiation of human mesenchymal stem cells. The human mesenchymal stem cells were maintained and cultured using the same technique as in Example 6. Cells were seeded on a 96-well plate to 1,000 cells per well and then cultured overnight using the growth medium. Thereafter, the bone differentiation was induced by exchanging the medium with a medium made by addition of 10% calf fetal serum, 2 mM GlutaMAX-1, 10 mMβ-glycerophosphate (Wako Pure Chemical Industries Ltd.), 0.05 mM ascorbic acid-2-phosphate (Wako Pure Chemical Industries Ltd.), 0.1 μM dexamethasone (Wako Pure Chemical Industries Ltd.), and 1× penicillin-streptomycin (Sigma) to low-glucose DMEM. Simultaneously with inducing bone differentiation, each selected compound was added to a final concentration of 3 μM, followed by adhesion culture for 8 days. After the end of culture, the level of expression of Alkaline phosphatase (Alp1) as an initial osteoblast marker was measured using the same technique as in Example 1.\nThe expression of other bone differentiation markers for which BIO or BrdU was added was also examined. […]"}, "[2]": {"tested_on": "human mesenchymal stem cells", "test": "Adipose differentiation of human mesenchymal stem cells: expression of adiponectin and PPARγ by quantitative RT-PCR", "assay_type": "cell-based", "settings": "compound added upon induction of adipose differentiation, 5 days (FIG. 4)", "experimental": "There was possibility that the selected compounds control the differentiation of adult stem cells as well as ES cells. Accordingly, the influence of these selected compounds was examined on adipose differentiation of human mesenchymal stem cells. The human mesenchymal stem cells were purchased from Lonza and subjected to adhesion culturing using a medium made by addition of 10% calf fetal serum, 2 mM GlutaMAX-1, and 1× penicillin-streptomycin (Sigma) (hereinafter referred to as “growth medium”) to low-glucose DMEM (Invitrogen). Upon induction of an adipose differentiation, cells were seeded on a 96-well plate to 3,000 cells per well and then cultured overnight using the growth medium. Thereafter, the adipose differentiation was induced by exchanging the growth medium with an adipose differentiation induction medium (i.e., a medium made by addition of 10% calf fetal serum, 2 mM GlutaMAX-1, 0.5 mM 3-isobutyl-1-methylxanthine (IBMX, Wako Pure Chemical Industries Ltd.), 10 μg/ml insulin (Wako Pure Chemical Industries Ltd.), 1 μM dexamethasone (Wako Pure Chemical Industries Ltd.), 200 μM indomethacin (Wako Pure Chemical Industries Ltd.), and 1× penicillin-streptomycin (Sigma) to high-glucose DMEM (Invitrogen)). Simultaneously with inducing adipose differentiation, each selected compound was added to a final concentration of 3 μM, followed by culture for 5 days. After 5 days, the level of expression of adiponectin as a fat cell marker was measured using the same technique as that described in Example 1.\nIn addition, the level of expression of PPARγ as a master regulator of adipose differentiation for which the 3 compounds (Y-27632, HA-100 and capsazepine) were each added was also measured using the same technique."}}, "note": "Some entries share one result that the patent states for a list of compounds. For some of these results: At least one compound was matched to its structure with a doubt left.", "data": [{"smiles": "C[C@@H]1C[C@H]2[C@@H]3CCC4=CC(=O)C=C[C@]4(C)[C@@]3(F)[C@@H](O)C[C@]2(C)[C@@]1(O)C(=O)CO", "note": "[dexamethasone]", "values": [{"measurement": "level of expression of at least one type of gene, increase compared to addition of DMSO", "setting": "ES cells (cell line D3); 3 μM compound (Example 3)", "result": "≥ 2", "unit": "times"}]}, {"smiles": "NC(=O)c1ccc(-c2nc(-c3ccc4c(c3)OCO4)c(-c3ccccn3)[nH]2)cc1", "note": "[SB 431542]", "values": [{"measurement": "level of expression of at least one type of gene, increase compared to addition of DMSO", "setting": "ES cells (cell line D3); 1 μM compound", "result": "≥ 2", "unit": "times"}]}, {"smiles": "O=c1[nH]c(=O)n([C@H]2C[C@H](O)[C@@H](CO)O2)cc1Br", "note": "[BrdU, 5-Bromo-2′-deoxyuridine]", "values": [{"measurement": "level of expression of Alp1, increase compared to control", "setting": "[1]", "result": "≥ 2", "unit": "times"}]}, {"smiles": "O=C(CCCCCCC(=O)Nc1ccccc1)NO", "note": "[SAHA, suberoylanilide hydroxamic acid]", "values": [{"measurement": "level of expression of at least one type of gene, increase compared to addition of DMSO", "setting": "ES cells (cell line D3); 1 μM compound", "result": "≥ 2", "unit": "times"}]}, {"smiles": "CC1=C(/C=C/C(C)=C/C=C/C(C)=C/C(=O)O)C(C)(C)CCC1", "note": "[retinoic acid]", "values": [{"measurement": "level of expression of at least one type of gene, increase compared to addition of DMSO", "setting": "ES cells (cell line D3); 50 nM compound", "result": "≥ 2", "unit": "times"}, {"measurement": "level of expression of at least one gene, increase relative to control in which DMSO was added (hit compounds)", "setting": "ES cells (cell line D3); LOPAC1280 screening, 3 μM compound, 0.15% DMSO, reproducibility confirmed", "result": "≥ 2", "unit": "times"}]}, {"smiles": "Oc1cc2c(cc1O)CN(C(=S)NCCc1ccc(Cl)cc1)CCC2", "note": "[capsazepine]", "values": [{"measurement": "level of expression of adiponectin, increase compared to control", "setting": "[2]", "result": "≥ 1.3", "unit": "times"}]}, {"smiles": "O=S(=O)(c1cccc2cnccc12)N1CCNCC1", "note": "[HA-100]", "values": [{"measurement": "level of expression of adiponectin, increase compared to control", "setting": "[2]", "result": "≥ 1.3", "unit": "times"}]}, {"smiles": "COc1cc2nc(N3CCCN(C)CC3)nc(NC3CCN(Cc4ccccc4)CC3)c2cc1OC", "note": "[BIX-01294]", "values": [{"measurement": "level of expression of at least one type of gene, increase compared to addition of DMSO", "setting": "ES cells (cell line D3); 0.5 μM compound", "result": "≥ 2", "unit": "times"}]}, {"smiles": "C[C@@H](N)[C@H]1CC[C@H](C(=O)Nc2ccncc2)CC1", "note": "[Y-27632]", "values": [{"measurement": "level of expression of adiponectin, increase compared to control", "setting": "[2]", "result": "≥ 1.3", "unit": "times"}]}]}
